Measured values published in PMC10800023 (Human Molecular Genetics, 2023).

Tested on: P-gp (MDR1)
Test: MDR1-MDCK permeability / P-gp efflux assay
Conditions: MDCK-MDR1, pH 7.4
Experimental: To measure transport by P-gp, Madin-Darby canine kidney (MDCK) cells that had been transfected with the human P-gp (MDR1) gene were plated in a Transwell plate and cultured until polarized. MDCK cells that are not transfected with human P-gp were used as a control. Compounds were added to either the apical or the basolateral side of the cells, and transport across the membrane was measured.
Testing for permeability and MDR1 substrate assessment was done in MDCK cells transfected to overexpress human MDR1 gene that encodes efflux transporter protein (P-gp). […] Briefly, cells were maintained in Dulbecco’s modified Eagle medium (DMEM) with 10% fetal bovine serum and 1% penicillin/streptomycin in a humidified incubator at 37°C with 5% CO2. The study was performed by Absorption Systems (now Pharmaron; Exton, PA). The MDR1-MDCK and MDCK control cell lines were seeded into 12-well plates for 7 days. Integrity of monolayer tight junctions was monitored preincubation by transepithelial electrical resistance (TEER) measurement. […] Compound levels were measured by LC/MS–MS. […] Papp values were calculated considering compound concentrations across the monolayer and cell surface area. Efflux ratios were calculated based on Papp B > A over Papp A > B. The difference between the MDR1-MDCK and the MDCK cell efflux ratios was also calculated. […]

CC(C)NCC(O)COc1ccc(CC(N)=O)cc1 (stereo not shown) [atenolol] gave a Papp at 60 min of 0.0464 to 0.0873 ×10⁻⁶ cm/s.
